The other results are listed elsewhere or left out.
Key:
Test in all cases: log2 fold change, soluble protein after heating vs DMSO (PISA); higher = thermal stabilisation; K562 cells, 10 uM, 30 min; active = over 0.2 and 3.5 SD of the protein, either way, in both replicates (recomputed)
[1] = compound: Cc1ccc(NC(=O)c2ccc(CN3CC[C@H](N(C)C)C3)c(C(F)(F)F)c2)cc1Nc1nccc(-c2cncnc2)n1 [bafetinib]
How it was run: (§1)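 Thermal stability values are relative to control samples and come from duplicates. They are expressed as log2 fold changes. For measurement, K562 cells (2×10^6 cells/mL) received 10 μM compound for 30 min, and aliquots were heated for 3 min over 48°C-58°C, pooled, and extracted at 4°C in PBS with 0.5% NP-40. Soluble protein, the supernatant after 21,000xg for 90 min, was quantified by TMTpro 16plex LC-MS/MS with equalised channel sums.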

Sequences of proteins named here, by UniProt entry; tags and fusion partners are left off. A change or cut given only in a name is not applied to a line headed by its entry.
UniProt Q9NXF7, whole entry, looked up: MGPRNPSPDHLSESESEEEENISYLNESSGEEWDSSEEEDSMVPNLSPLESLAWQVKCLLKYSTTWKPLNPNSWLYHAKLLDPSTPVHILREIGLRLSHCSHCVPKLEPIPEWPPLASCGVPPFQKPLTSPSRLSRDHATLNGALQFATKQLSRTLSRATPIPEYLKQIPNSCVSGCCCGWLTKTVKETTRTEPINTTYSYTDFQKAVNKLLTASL
UniProt Q9UK59: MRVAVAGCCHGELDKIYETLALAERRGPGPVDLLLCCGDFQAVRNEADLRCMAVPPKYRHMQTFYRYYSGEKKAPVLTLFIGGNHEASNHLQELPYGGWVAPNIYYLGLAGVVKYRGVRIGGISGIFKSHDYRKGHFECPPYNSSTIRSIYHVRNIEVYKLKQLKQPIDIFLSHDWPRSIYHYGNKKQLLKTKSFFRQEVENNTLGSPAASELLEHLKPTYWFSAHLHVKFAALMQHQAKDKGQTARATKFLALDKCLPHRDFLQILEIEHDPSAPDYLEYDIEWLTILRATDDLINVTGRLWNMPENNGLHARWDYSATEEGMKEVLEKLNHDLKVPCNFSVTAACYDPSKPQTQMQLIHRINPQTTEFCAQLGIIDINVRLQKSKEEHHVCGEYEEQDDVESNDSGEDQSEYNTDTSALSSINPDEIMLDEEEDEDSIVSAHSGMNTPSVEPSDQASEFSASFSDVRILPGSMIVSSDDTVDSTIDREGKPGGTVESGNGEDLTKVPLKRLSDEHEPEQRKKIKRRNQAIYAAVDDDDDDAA
UniProt P07711: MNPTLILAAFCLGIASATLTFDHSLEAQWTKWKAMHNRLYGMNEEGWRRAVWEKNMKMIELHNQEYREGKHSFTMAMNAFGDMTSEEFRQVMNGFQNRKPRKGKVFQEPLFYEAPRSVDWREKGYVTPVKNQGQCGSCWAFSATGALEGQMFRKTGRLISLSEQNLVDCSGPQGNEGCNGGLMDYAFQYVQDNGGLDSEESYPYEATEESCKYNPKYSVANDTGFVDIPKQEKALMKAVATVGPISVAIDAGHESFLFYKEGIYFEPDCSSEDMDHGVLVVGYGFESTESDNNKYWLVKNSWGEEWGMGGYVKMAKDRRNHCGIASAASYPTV
UniProt Q9H467: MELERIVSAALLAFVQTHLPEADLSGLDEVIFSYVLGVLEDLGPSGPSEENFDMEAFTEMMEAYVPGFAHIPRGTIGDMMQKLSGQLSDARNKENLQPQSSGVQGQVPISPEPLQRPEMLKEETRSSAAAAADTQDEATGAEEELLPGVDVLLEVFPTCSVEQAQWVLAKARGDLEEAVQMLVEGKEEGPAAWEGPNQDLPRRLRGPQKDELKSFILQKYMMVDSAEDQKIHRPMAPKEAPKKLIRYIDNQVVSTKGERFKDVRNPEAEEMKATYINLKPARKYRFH
UniProt Q9NRF8: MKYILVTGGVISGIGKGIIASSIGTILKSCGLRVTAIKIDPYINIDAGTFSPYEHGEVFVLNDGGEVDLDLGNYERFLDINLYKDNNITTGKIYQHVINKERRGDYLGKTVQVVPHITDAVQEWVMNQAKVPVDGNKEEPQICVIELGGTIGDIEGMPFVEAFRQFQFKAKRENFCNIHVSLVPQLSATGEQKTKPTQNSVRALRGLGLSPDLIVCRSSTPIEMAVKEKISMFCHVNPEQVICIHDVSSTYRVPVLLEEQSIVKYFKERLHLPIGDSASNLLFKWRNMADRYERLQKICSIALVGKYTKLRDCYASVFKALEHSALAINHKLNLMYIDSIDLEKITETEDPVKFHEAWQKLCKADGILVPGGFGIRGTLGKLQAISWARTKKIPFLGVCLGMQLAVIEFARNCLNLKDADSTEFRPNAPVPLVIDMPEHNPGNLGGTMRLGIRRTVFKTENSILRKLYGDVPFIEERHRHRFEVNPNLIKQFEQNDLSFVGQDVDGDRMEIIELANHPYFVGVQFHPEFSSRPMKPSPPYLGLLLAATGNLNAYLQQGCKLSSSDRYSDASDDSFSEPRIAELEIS
UniProt P99999: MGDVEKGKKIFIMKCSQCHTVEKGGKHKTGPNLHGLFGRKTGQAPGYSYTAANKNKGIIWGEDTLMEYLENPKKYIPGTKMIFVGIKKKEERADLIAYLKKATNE
UniProt Q7L576: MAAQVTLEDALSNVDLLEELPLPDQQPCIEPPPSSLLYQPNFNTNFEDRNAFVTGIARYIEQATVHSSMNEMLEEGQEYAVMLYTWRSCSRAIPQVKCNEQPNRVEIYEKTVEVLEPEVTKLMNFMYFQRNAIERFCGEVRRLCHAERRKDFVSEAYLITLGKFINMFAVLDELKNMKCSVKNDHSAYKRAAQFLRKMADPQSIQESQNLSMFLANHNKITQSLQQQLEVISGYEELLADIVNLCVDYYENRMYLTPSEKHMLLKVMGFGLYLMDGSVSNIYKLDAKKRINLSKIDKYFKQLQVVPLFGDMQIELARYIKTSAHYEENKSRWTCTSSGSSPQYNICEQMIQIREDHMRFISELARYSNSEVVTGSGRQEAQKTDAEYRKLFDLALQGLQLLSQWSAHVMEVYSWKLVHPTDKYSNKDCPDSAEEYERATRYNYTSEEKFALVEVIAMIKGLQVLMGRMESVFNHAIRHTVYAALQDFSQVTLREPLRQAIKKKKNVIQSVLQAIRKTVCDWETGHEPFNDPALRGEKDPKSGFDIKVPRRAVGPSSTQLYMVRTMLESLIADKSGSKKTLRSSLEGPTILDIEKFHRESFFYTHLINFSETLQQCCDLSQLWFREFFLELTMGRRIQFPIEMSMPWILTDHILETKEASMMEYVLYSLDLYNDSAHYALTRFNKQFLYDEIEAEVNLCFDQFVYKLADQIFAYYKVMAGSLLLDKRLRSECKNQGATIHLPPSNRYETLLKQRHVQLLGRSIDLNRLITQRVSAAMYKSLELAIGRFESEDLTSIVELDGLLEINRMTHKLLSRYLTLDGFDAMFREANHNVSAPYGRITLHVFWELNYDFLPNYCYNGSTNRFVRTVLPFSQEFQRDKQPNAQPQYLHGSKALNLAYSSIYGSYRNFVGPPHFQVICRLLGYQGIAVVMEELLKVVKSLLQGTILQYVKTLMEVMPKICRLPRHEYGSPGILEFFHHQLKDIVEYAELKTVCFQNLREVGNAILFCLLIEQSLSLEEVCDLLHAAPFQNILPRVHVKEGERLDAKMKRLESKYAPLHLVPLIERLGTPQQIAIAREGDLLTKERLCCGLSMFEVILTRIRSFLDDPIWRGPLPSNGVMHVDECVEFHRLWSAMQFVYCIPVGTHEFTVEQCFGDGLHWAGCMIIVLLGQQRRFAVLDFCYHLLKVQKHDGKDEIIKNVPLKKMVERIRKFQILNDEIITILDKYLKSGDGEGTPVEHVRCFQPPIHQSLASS
UniProt Q9UHQ9: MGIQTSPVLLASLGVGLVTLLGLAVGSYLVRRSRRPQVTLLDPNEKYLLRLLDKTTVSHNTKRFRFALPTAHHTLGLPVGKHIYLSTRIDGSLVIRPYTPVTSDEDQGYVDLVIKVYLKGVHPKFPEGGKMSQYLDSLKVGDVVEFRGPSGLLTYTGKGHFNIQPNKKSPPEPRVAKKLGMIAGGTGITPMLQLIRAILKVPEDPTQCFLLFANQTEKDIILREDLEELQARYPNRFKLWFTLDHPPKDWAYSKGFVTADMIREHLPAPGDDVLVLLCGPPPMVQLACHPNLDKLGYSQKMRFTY

[2] = compound: Cc1cccc(CC(=O)N2CCc3c2ccc(-c2cn(C)c4ncnc(N)c24)c3F)n1
How it was run: as §1

[3] = compound: Cc1cn(-c2cc(NC(=O)c3ccc(C)c(Nc4nccc(-c5cccnc5)n4)c3)cc(C(F)(F)F)c2)cn1 [nilotinib]
How it was run: as §1

[4] = compound: Cc1nc(Nc2n[nH]c3c2CN(C(=O)N[C@H](CN(C)C)c2ccccc2)C3(C)C)c2sccc2n1
How it was run: as §1

[5] = compound: Cc1nc(Nc2ncc(C(=O)Nc3c(C)cccc3Cl)s2)cc(N2CCN(CCO)CC2)n1 [dasatinib]
How it was run: as §1

[6] = compound: Cc1ncc(-c2ccnc(Nc3ccc(S(C)(=O)=O)cc3)n2)n1C(C)C
How it was run: as §1

[7] = compound: Cn1cc(-c2ccc3c(c2)CCN3C(=O)Cc2cccc(C(F)(F)F)c2)c2c(N)ncnc21
How it was run: as §1

[8] = compound: Cn1cc(-c2ccc3nnc(C(F)(F)c4ccc5ncccc5c4)n3n2)cn1
How it was run: as §1

[9] = compound: Cn1cncc1[C@@](N)(c1ccc(Cl)cc1)c1ccc2c(c1)c(-c1cccc(Cl)c1)cc(=O)n2C [tipifarnib]
How it was run: as §1

[10] = compound: FC(F)(F)c1ccc(/C=C/c2nc(COc3ccc(CCCCn4ccnn4)cc3)co2)cc1 [mubritinib]
How it was run: as §1

[11] = compound: NC(=O)Nc1cc(-c2cccc(F)c2)sc1C(=O)N[C@H]1CCCNC1
How it was run: as §1

[12] = compound: NC(=O)c1cnc(N[C@@H]2CCCC[C@@H]2N)nc1Nc1cccc(-n2nccn2)c1
How it was run: as §1

[13] = compound: NC1(c2ccc(-c3nc4ccn5c(=O)[nH]nc5c4cc3-c3ccccc3)cc2)CCC1
How it was run: as §1

[14] = compound: NCC(=O)Nc1ccc(-n2nc(C(F)(F)F)cc2-c2ccc3c(ccc4ccccc43)c2)cc1
How it was run: as §1

[15] = compound: Nc1ccccc1NC(=O)c1ccc(CNC(=O)OCc2cccnc2)cc1 [entinostat]
How it was run: as §1

[16] = compound: O=C(CCCCCCC(=O)Nc1ccccc1)NO [vorinostat]
How it was run: as §1

[17] = compound: O=C(CCCCCCNC(=O)c1cnc(N(c2ccccc2)c2ccccc2Cl)nc1)NO [citarinostat]
How it was run: as §1

[18] = compound: O=C(O)c1ccc2c(c1)nc(Nc1cccc(Cl)c1)c1ccncc12 [silmitasertib]
How it was run: as §1

[19] = compound: O=C1NC(=O)C(c2cnc3ccccn23)=C1c1cn2c3c(cc(F)cc13)CN(C(=O)N1CCCCC1)CC2
How it was run: as §1

[20] = compound: c1cc(OCCN2CCCCC2)cc(-c2n[nH]c3ccc(-c4nnc[nH]4)cc23)c1
How it was run: as §1

Row | Target | log2 fold change [1] | log2 fold change [2] | log2 fold change [3] | log2 fold change [4] | log2 fold change [5] | log2 fold change [6] | log2 fold change [7] | log2 fold change [8] | log2 fold change [9] | log2 fold change [10] | log2 fold change [11] | log2 fold change [12] | log2 fold change [13] | log2 fold change [14] | log2 fold change [15] | log2 fold change [16] | log2 fold change [17] | log2 fold change [18] | log2 fold change [19] | log2 fold change [20]
1 | DCAF16 (UniProt Q9NXF7) | inactive: -0.051 | inactive: -0.056 | inactive: -0.005 | inactive: -0.004 | inactive: -0.179 | inactive: 0.005 | inactive: -0.031 | inactive: 0.091 | inactive: -0.155 | inactive: -0.085 | inactive: -0.122 | inactive: -0.109 | inactive: -0.09 | inactive: -0.036 | inactive: 0.02 | inactive: 0.004 | inactive: 0.07 | inactive: 0.082 | inactive: -0.09 | inactive: -0.041
2 | DBR1 (UniProt Q9UK59) | inactive: -0.001 | inactive: 0.02 | inactive: -0.023 | inactive: 0.05 | inactive: 0.06 | inactive: -0.009 | inactive: 0.021 | inactive: -0.067 | inactive: 0.03 | inactive: -0.002 | inactive: 0.002 | inactive: -0.017 | inactive: -0.002 | inactive: 0.052 | inactive: -0.023 | active: -0.215 | inactive: 0.014 | inactive: -0.012 | inactive: -0.004 | inactive: -0.072
3 | CTSL (UniProt P07711) | inactive: -0.261 | inactive: -0.046 | inactive: 0.041 | inactive: 0.103 | inactive: 0.14 | inactive: 0.004 | inactive: 0.013 | inactive: 0.045 | inactive: 0.145 | inactive: -0.006 | inactive: 0.082 | inactive: -0.045 | inactive: -0.123 | inactive: 0.039 | inactive: -0.074 | inactive: -0.053 | inactive: -0.018 | inactive: 0.027 | inactive: -0.079 | inactive: -0.011
4 | CUEDC2 (UniProt Q9H467) | inactive: -0.072 | inactive: 0.003 | inactive: -0.006 | inactive: -0.045 | inactive: 0.049 | inactive: -0.055 | inactive: 0.02 | inactive: -0.009 | inactive: 0.028 | inactive: 0.042 | inactive: 0 | inactive: -0.105 | inactive: -0.043 | inactive: -0.056 | inactive: -0.009 | inactive: -0.039 | inactive: 0.096 | inactive: 0.008 | inactive: -0.055 | inactive: 0.002
5 | CTPS2 (UniProt Q9NRF8) | inactive: -0.012 | inactive: -0.013 | inactive: -0.009 | inactive: 0.007 | inactive: 0.03 | inactive: -0.01 | inactive: -0.006 | inactive: 0.006 | inactive: -0.016 | inactive: 0.059 | inactive: -0.012 | inactive: 0.012 | inactive: -0.023 | inactive: 0.027 | inactive: -0.023 | inactive: 0.02 | inactive: 0.037 | inactive: 0.019 | inactive: -0.02 | inactive: -0.005
6 | CYCS (UniProt P99999) | inactive: -0.049 | inactive: -0.031 | inactive: 0.147 | inactive: -0.011 | inactive: 0.035 | inactive: -0.013 | inactive: 0.017 | inactive: -0.009 | inactive: -0.027 | inactive: 0.015 | inactive: 0.017 | inactive: 0.044 | inactive: 0.013 | inactive: 0.019 | inactive: -0.039 | inactive: -0.038 | inactive: 0.002 | inactive: -0.02 | inactive: -0.027 | inactive: -0.003
7 | CYFIP1 (UniProt Q7L576) | inactive: -0.064 | inactive: 0.002 | inactive: -0.015 | inactive: -0.064 | inactive: -0.05 | inactive: -0.024 | inactive: 0.049 | inactive: -0.006 | inactive: -0.011 | inactive: 0.022 | inactive: -0.088 | inactive: -0.029 | inactive: -0.143 | inactive: 0.003 | inactive: 0.02 | inactive: -0.025 | inactive: 0.031 | inactive: 0.009 | inactive: -0.039 | inactive: -0.064
8 | CYB5R1 (UniProt Q9UHQ9) | inactive: -0.041 | inactive: -0.051 | inactive: -0.02 | inactive: 0.009 | inactive: -0.023 | inactive: -0.013 | inactive: 0.017 | inactive: 0.02 | inactive: 0.003 | inactive: 0.014 | inactive: -0.022 | inactive: -0.044 | inactive: -0.01 | inactive: -0.068 | inactive: -0.033 | inactive: 0.007 | inactive: -0.009 | inactive: -0.012 | inactive: -0.028 | inactive: -0.035

Some of the entries above, reformatted:
Row,Target,log2 fold change [1],log2 fold change [2],log2 fold change [3],log2 fold change [4],log2 fold change [5],log2 fold change [6],log2 fold change [7],log2 fold change [8],log2 fold change [9],log2 fold change [10],log2 fold change [11],log2 fold change [12],log2 fold change [13],log2 fold change [14],log2 fold change [15],log2 fold change [16],log2 fold change [17],log2 fold change [18],log2 fold change [19],log2 fold change [20]
2,DBR1 (UniProt Q9UK59),inactive: -0.001,inactive: 0.02,inactive: -0.023,inactive: 0.05,inactive: 0.06,inactive: -0.009,inactive: 0.021,inactive: -0.067,inactive: 0.03,inactive: -0.002,inactive: 0.002,inactive: -0.017,inactive: -0.002,inactive: 0.052,inactive: -0.023,active: -0.215,inactive: 0.014,inactive: -0.012,inactive: -0.004,inactive: -0.072
3,CTSL (UniProt P07711),inactive: -0.261,inactive: -0.046,inactive: 0.041,inactive: 0.103,inactive: 0.14,inactive: 0.004,inactive: 0.013,inactive: 0.045,inactive: 0.145,inactive: -0.006,inactive: 0.082,inactive: -0.045,inactive: -0.123,inactive: 0.039,inactive: -0.074,inactive: -0.053,inactive: -0.018,inactive: 0.027,inactive: -0.079,inactive: -0.011
